Data set [1] can be described thus: Light absorption and fluorescence of dyes and kaolin powders. The format is physicochemical. As to conditions: product deposited on kaolin.
The conditions of data set [2]: unmodified precursor dye; cited from earlier work.

SMILES strings stand for the structures.

Consider 4 compounds from US7705144B2, “Dyes of improved optical brightness and/or fluorescence and compositions containing them” (priority 2007, dated 2010).

As to `C=Cc1ccc(Nc2nc(OCCCCCCCC)nc(Oc3ccc(C(c4ccccc4)(c4ccccc4)c4ccccc4)cc3)n2)cc1` [Compound II], the “fluorescence of the kaolin powder under a UV 254 lamp” value in data set [1] is “fluoresces blue”. For `CC1CCC(Oc2nc(Oc3ccc4c(-c5ccccc5C(=O)O)c5ccc(=O)cc-5oc4c3)nc(OC3CCC(C)CC3C(C)C)n2)C(C(C)C)C1` (stereo not shown) [Compound IV], the “fluorescence of the kaolin powder under a UV 254 lamp” value in data set [1] is “fluoresces yellow-green”.

Consider `N=C1C=CC(=C(c2ccc(N)cc2)c2ccc(N)cc2)C=C1` [pararosaniline], for which, in data set [2], the “precursor dyes fluoresce in the red end of the spectrum” value is on record as 604-627 nm. For `Cc1cc2nc3ccc(N(C)C)cc3[s+]c2cc1N.[Cl-]` [toluidine blue O], the “precursor dyes fluoresce in the red end of the spectrum” value in data set [2] was 660-700 nm.
